{"sequences": {"note": "The chains behind the UniProt entries cited, without tags or fusion partners. Residues count along the entry.", "UniProt Q9NQC3, residues 1055-1120": "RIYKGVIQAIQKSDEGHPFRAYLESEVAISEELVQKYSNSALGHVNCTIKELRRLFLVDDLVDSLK"}, "source": "patent US20170008959A1", "binders": {"B1": {"name": "His-NogoR fusion protein (receptor, human, UniProt Q9BZR6 27-447, looked up, not shown: small tags and cut ends)", "chain": "CPGACVCYNEPKVTTSCPQQGLQAVPVGIPAASQRIFLHGNRISHVPAASFRACRNLTILWLHSNVLARIDAAAFTGLALLEQLDLSDNAQLRSVDPATFHGLGRLHTLHLDRCGLQELGPGLFRGLAALQYLYLQDNALQALPDDTFRDLGNLTHLFLHGNRISSVPERAFRGLHSLDRLLLHQNRVAHVHPHAFRDLGRLMTLYLFANNLSALPTEALAPLRALQYLRLNDNPWVCDCRARPLWAWLQKFRGSSSEVPCSLPQRLAGRDLKRLAANDLQGCAVATGPYHPIWTGRATDEEPLGLPKCCQPDAADKASVLEPGRPASAGNALKGRVPPGDSPPGNGSGPRHINDSPFGTLPGSAEPPLTAVRPEGSEPPGFPTSGPRRRPGCSRKNRTRSHCRLGQAGSGGGGTGDSEGS"}}, "biological_target": "AP-Nogo66 (Nogo-66 with an N-terminal alkaline phosphatase tag) (human) (UniProt Q9NQC3)", "test": "competition ELISA: AP-Nogo66 0.1 nM with soluble His-NogoR, competing with plate-coated His-NogoR; AttoPhos readout", "note": "Results are given in words; binding and its absence hold for the method and conditions named. Some binding calls cover weakened binding; strength is not graded here. Tags and fused reporters may be left off the sequences shown.", "data": [{"binder": "B1", "values": [{"measurement": "binding", "value": "binds"}]}]}
